Results published in the supplement of paper PMC3334620.
The full ranking holds about 33,000 sequences; the median of “E-score (-0.5 to 0.5)” is about -0.0014, and the highest 2% start at about 0.25. This is one part of the list.

molecular target: T1, Cad1 (UniProt P24813); assay: PBM E-score (8-mer binding enrichment) (E-score (-0.5 to 0.5)); higher = stronger / more preferred TF binding; conditions: protein concentration: 100 nM; construct: GST-full length
T1 sequence: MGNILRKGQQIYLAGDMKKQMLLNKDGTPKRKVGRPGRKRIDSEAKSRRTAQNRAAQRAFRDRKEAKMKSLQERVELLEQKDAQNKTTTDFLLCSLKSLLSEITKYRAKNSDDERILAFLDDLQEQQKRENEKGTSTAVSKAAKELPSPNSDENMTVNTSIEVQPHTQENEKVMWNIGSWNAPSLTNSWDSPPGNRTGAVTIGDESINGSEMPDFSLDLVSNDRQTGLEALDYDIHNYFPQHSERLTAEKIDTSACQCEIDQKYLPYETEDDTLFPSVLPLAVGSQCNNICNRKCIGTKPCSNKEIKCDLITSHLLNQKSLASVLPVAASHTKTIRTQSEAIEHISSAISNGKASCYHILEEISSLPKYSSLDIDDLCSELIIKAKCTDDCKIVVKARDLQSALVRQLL
In short: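 For each ungapped eight-base word taken together with its reverse complement, the Universal PBM Analysis Suite assigned an E-score. Binding data came from GST-tagged yeast transcription factors, applied at about 100-200 nM, on universal all-10-mer Agilent arrays made double-stranded by primer extension. Fluorescent anti-GST marked bound protein, and scans were normalised with masliner.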

Sequence | PBM E-score
GAGATCTA | -0.0199
TACGCTCA | -0.0567
CAGGGAAG | -0.212
CGGAGAAC | -0.0324
TGGCGAAA | 0.122
TAGCACAA | -0.0106
CTTCAATA | 0.0605
GTGATAAA | 0.12
GCGTCCAA | -0.0369
AGTCACAG | -0.0577
CCCCCGCA | -0.295
CAGAAAGG | -0.153
TTACGCAA | 0.268
AACAGTGA | -0.0303
GTACAGTA | -0.0144
CAATACCC | -0.00468
TCCGAAGA | 0.197
CGCAATAG | 0.0142
CGATGGCA | -0.123
ACCGACGG | -0.141
AACGCATA | 0.218
CTGTGTTC | 0.166
CGATGATA | 0.0469
CAGGGTCC | -0.134
ACGATGTA | 0.191

Sequence | PBM E-score
CAGATTAC | 0.0844
ACAGTGGA | -0.0217
CGAGCGTA | 0.0172
CATAGCTC | -0.135
AACTCGAG | 0.141
GAAGGGAA | -0.176
CTTAATAC | -0.0147
ACCTCTCC | -0.205
AAAGATCG | -0.0698
CGTCTCAG | 0.0242
TAAGACTA | -0.0699
GAGAATCC | 0.153
GAATTTGA | 0.138
CAACTGTC | 0.0813
ATACTTCC | 0.0356
CCGAGGCC | -0.0203
GCGAGGTA | 0.0523
CGATCTGC | -0.00987
GTCGATGA | -0.0161
GACTGGGC | -0.197
GAATACTC | -0.21
ATACGAGA | -0.156
ACGTGGGG | -0.126
CTCTGCTC | -0.0577
AGCTTAAT | 0.141

Sequence | PBM E-score
ACAGGGGA | -0.181
AGTCAGCA | 0.242
CCTTGTCC | 0.104
TACGTGGA | -0.14
CGTTGAAG | -0.178
ATACTTGC | 0.0566
GCGAGTAC | 0.128
CCTCTAGA | -0.13
CGGGTGGC | -0.274
CCGTGACA | -0.101
AGGCTTTG | -0.134
AGGTCATG | -0.0332
GTATCTGA | 0.0184
GATCTGTA | -0.0378
ATGCTCGG | 0.0283
TTAGTCAA | 0.249
AGGTCAGA | -0.13
AAACGTCT | 0.0867
CGTTGTCA | 0.067
AAGTGGAT | -0.12
CTCCCGGC | -0.0648
ACGCGTGG | 0.0402
CCAGACGC | 0.0161
CAACTAAC | 0.144
CCTATGGA | -0.0285

Seven entries drawn at random from the list so far, as already listed:
Sequence | PBM E-score
TTAGTCAA | 0.249
CGGAGAAC | -0.0324
CAGGGTCC | -0.134
GATCTGTA | -0.0378
TACGTGGA | -0.14
CTCTGCTC | -0.0577
ATACTTGC | 0.0566

The list goes on.

Sequence | PBM E-score
GCGGAGGA | -0.16
AAACGGAA | 0.266
CCTGGTGC | -0.0804
CCAGATAA | 0.0761
GGCATTTA | -0.248
AACCTAAC | 0.0544
AAGGTGGG | -0.232
TGCCCAAA | -0.126
CAACCGGC | 0.162
ATTAGCTA | 0.109
ATTCGCCC | -0.0599
ATAGCGCC | 0.122
CAAGCAGA | 0.0659
ATGAGCTG | -0.015
AGCACTAC | -0.0732
ATGTGTAC | 0.0821
ACCCTGCG | -0.225
AAGTGCCT | -0.303
AACGCGCA | 0.189
ACTGCTGA | 0.132
ACAAACCA | 0.103
AAATGAAG | 0.00624
CTAAGCCA | -0.154
CTGAGTAA | 0.254
ATAATAAC | 0.114

Sequence | PBM E-score
ACTCCACG | -0.203
ATACCCTG | 0.00257
AGAATAAG | 0.0341
GCCATCTA | -0.162
CCTGTAGA | -0.0405
AGATCAAA | -0.0739
CCGTTAAC | 0.0965
GGGCCGCA | -0.201
AGTCCCAG | -0.179
AAAAAATT | 0.12
ACCAAGCT | 0.0929
GGCAATCA | -0.0893
CATGTTGG | -0.0992
CACCAGGG | -0.269
ACGAGTAT | 0.0386
AGTTGGAC | -0.173
CTCCTTGA | -0.12
GAGACCAC | -0.0844
CGATCGGA | 0.0447
AGTTTGTA | 0.0287
CCGACTCA | -0.133
CAAGAGTA | -0.0395
ATTTGAAG | 0.0122
GACCTACC | 0.0154
CGTATTCA | 0.0834

Sequence | PBM E-score
ATATCGAC | 0.178
CGATTACG | 0.13
ATACCAGC | -0.0568
AGGTTGAT | -0.18
AGCAGATG | -0.0375
CCATTTCA | -0.0256
CGCGACTC | 0.049
TATAGAGA | -0.0863
CGTGACAC | 0.126
AAAGCGGG | -0.177
AATCGAAA | 0.00175
GCAACGAC | -0.00571
CTCATGTA | 0.118
GCTAACTA | 0.17
AGTACGAG | -0.0103
AACGGCGT | 0.057
CGACTTAG | 0.0509
ACCAAACG | 0.0664
CTACTGTC | -0.0918
ACTCCAGT | 0.0336
GAGTTTAC | -0.0611
ACTAACAT | 0.255
GCCCCTTA | -0.144
GCCCTAAA | -0.269
ACTCTTCG | 0.0114

Sequence | PBM E-score
TGCGCACA | 0.248
AATTATCG | 0.247
TACTAGTA | 0.273
ATATTACC | 0.28
GAGGTCCC | -0.2
CAGCCGCC | -0.0839
ACTAGAGC | -0.162
ACATAGGA | -0.26
GCTCTCGA | -0.141
AATCGGGG | -0.241
GAGTTCGA | 0.208
AATATAGC | 0.0229
AGAAGAAA | -0.00692
GCTAGCAA | 0.0812
CGCGGGGC | -0.0341
TAGCGAGA | 0.0828
CCGATGCC | -0.0323
ATTTGCGG | 0.207
AATCGAAG | 0.182
CACTCCGG | 0.101
CAATCCTG | -0.0306
CGCCGGAC | 0.0345

Some of the entries so far, as labelled records.
TACTAGTA
  PBM E-score = 0.273
ATATTACC
  PBM E-score = 0.28
GAGGTCCC
  PBM E-score = -0.2
CAGCCGCC
  PBM E-score = -0.0839
